The text below walks through data of the supplement of paper PMC4635364.

Test [1] relates to ReNCell VM. Nature of the test: neuronal differentiation score (DCX+ cell fraction vs untreated, manual image score) (score (-3 to 3)); higher = more neuronal differentiation. Conditions: 2 uM, 2 weeks.
Test [2] relates to ReNCell VM. The test is described as follows: dopaminergic neuron differentiation score (TH+ cell fraction vs untreated, manual image score) (score (0 to 3)); higher = more TH+ dopaminergic neuron differentiation. Particulars: 2 uM, 4 weeks, BDNF 10 ng/ml + GDNF 10 ng/ml.

Counter-ions that a name gives are not always drawn. This is one part of the list. This data set is noisy: repeats of one test often differ as much as different tests do.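 Cells: ReNCell VM human fetal ventral-midbrain neural progenitors, differentiated mitogen-free. Blinded raters compared doublecortin-stained (early neurons) or tyrosine hydroxylase-stained (dopaminergic neurons) images with untreated wells, where 0 means no change. After repeats and both raters were averaged, compounds scoring 2 or above became hits for retesting.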

For the compound `CS(=O)(=O)Nc1ccc(Cc2noc(-c3ccc4[nH]cc(CCN)c4c3)n2)cc1`, in test [1] (library: Tocriscreen), the neuronal differentiation score was inactive: 0. The “dopaminergic neuron differentiation score” value in test [2] (library: Tocriscreen) was inactive: 0.

Turning to `CC[C@@H](c1cccc(O)c1)[C@@H](C)CN(C)C`, the neuronal differentiation score in test [1] (library: Spectrum) is inactive: 1. In test [2] (library: Spectrum), the “dopaminergic neuron differentiation score” value is inactive: 0.

As to `COc1ccc(C(CN(C)C)C2(O)CCCCC2)cc1` (stereo not given) [Venlafaxine], the neuronal differentiation score in test [1] (library: Prestwick) is inactive: 0. Besides, the “dopaminergic neuron differentiation score” value in test [2] (library: Prestwick) is inactive: 0.

On to `C[C@H]1CC[C@@H]2N(C1)C[C@H]1[C@@H]3C[C@H]4[C@@H](CC(=O)[C@H]5C[C@@H](O)CC[C@@]54C)[C@@H]3CC[C@H]1[C@]2(C)O` [Imperialine], for which, in test [1] (library: Phytochemical), the neuronal differentiation score is inactive: 0. The “dopaminergic neuron differentiation score” value in test [2] (library: Phytochemical) was inactive: 0.

Regarding `CS(=N)(=O)CC[C@H](N)C(=O)O` (stereo partly drawn) [L-Methionine sulfoximine], the neuronal differentiation score in test [1] (library: LOPAC) was inactive: 0. Besides, the “dopaminergic neuron differentiation score” value in test [2] (library: LOPAC) was inactive: 0.

Take `COc1ccc(/C=C/c2cc(O)cc(O)c2)cc1`: in test [1] (library: Spectrum), the neuronal differentiation score was inactive: 0. Besides, in test [2] (library: Spectrum), the “dopaminergic neuron differentiation score” value was inactive: 0.

Regarding `CCCC(C)(COC(N)=O)COC(=O)NC(C)C` (stereo not given), the neuronal differentiation score in test [1] (library: Spectrum) was inactive: 0. Also, the “dopaminergic neuron differentiation score” value in test [2] (library: Spectrum) was inactive: 0.

Consider `COc1cc(N)c(Cl)cc1C(=O)NC1CN2CCC1CC2` (stereo not given) [Zacopride hydrochloride], for which the neuronal differentiation score in test [1] (library: Tocriscreen) is inactive: 0. Moreover, the “dopaminergic neuron differentiation score” value in test [2] (library: Tocriscreen) is inactive: 0.

For `NCc1cccnc1`, in test [1] (library: Spectrum), the neuronal differentiation score is inactive: 0. For the same compound, the “dopaminergic neuron differentiation score” value in test [2] (library: Spectrum) was inactive: 0.

`C[N+]1(C)CCc2cc3c(cc2[C@H]1[C@@H]1OC(=O)c2c1ccc1c2OCO1)OCO3` [(-)-Bicuculline methbromide, 1(S), 9(R)]: the neuronal differentiation score in test [1] (library: LOPAC) was inactive: 0. The “dopaminergic neuron differentiation score” value in test [2] (library: LOPAC) was inactive: 0.

On to `O=[N+]([O-])O[C@H]1CO[C@H]2[C@@H]1OC[C@H]2O[N+](=O)[O-]`, for which the neuronal differentiation score in test [1] (library: Spectrum) is inactive: 0. In addition, the “dopaminergic neuron differentiation score” value in test [2] (library: Spectrum) is inactive: 0.

Consider `CC[C@H]1CN2CCc3cc(OC)c(OC)cc3[C@@H]2C[C@@H]1C[C@H]1NCCc2cc(OC)c(OC)cc21` [Emetine dihydrochloride hydrate], for which, in test [1] (library: LOPAC), the neuronal differentiation score is inactive: 0. In addition, the “dopaminergic neuron differentiation score” value in test [2] (library: LOPAC) is inactive: 0.

`O=C1c2ccccc2C(=O)c2ccccc21`: the neuronal differentiation score in test [1] (library: Spectrum) was inactive: 0. Further, in test [2] (library: Spectrum), the “dopaminergic neuron differentiation score” value is inactive: 0.

Take `C[C@]12CC[C@@H](O)C[C@@H]1CC[C@@H]1[C@@H]2CC[C@]2(C)C(=O)CC[C@@H]12` [Androsterone]: the neuronal differentiation score in test [1] (library: Prestwick) was inactive: 0. Also, the “dopaminergic neuron differentiation score” value in test [2] (library: Prestwick) was inactive: 0.

As to `CN1[C@@H]2CC[C@H]1C[C@@H](OC(=O)C(CO)c1ccccc1)C2` (stereo not given in full) [atropine], in test [1] (library: Natural), the neuronal differentiation score was inactive: 0. In addition, in test [2] (library: Natural), the “dopaminergic neuron differentiation score” value was inactive: 0.

Regarding `CC[C@H]1CN2CCc3cc(OC)c(OC)cc3[C@@H]2C[C@@H]1C[C@H]1NCCc2cc(OC)c(OC)cc21` [Emetine dihydrochloride], the neuronal differentiation score in test [1] (library: Phytochemical) is inactive: 0. The “dopaminergic neuron differentiation score” value in test [2] (library: Phytochemical) was inactive: 0.

As for `COc1ccc2c(c1OC)C(=O)O[C@@H]2[C@H]1c2cc3c(cc2CCN1C)OCO3`, the neuronal differentiation score in test [1] (library: Spectrum) was inactive: 0. In test [2] (library: Spectrum), the “dopaminergic neuron differentiation score” value is inactive: 1.

Regarding `O[C@H]1[C@H](O)[C@@H](O)CN2CC[C@H](O)[C@H]12` [Castanospermine], in test [1] (library: Tocriscreen), the neuronal differentiation score is inactive: 0. In addition, the “dopaminergic neuron differentiation score” value in test [2] (library: Tocriscreen) is inactive: 0.

With `CC1(C(=O)O)C2CCC(O2)C1(C)C(=O)O` (stereo not given) [Cantharidic Acid], in test [1] (library: LOPAC), the neuronal differentiation score was inactive: 0. The “dopaminergic neuron differentiation score” value in test [2] (library: LOPAC) was inactive: 0.

For `CN1[C@@H]2C[C@@H](OC(=O)[C@H](CO)c3ccccc3)C[C@H]1[C@@H]1O[C@@H]12` [Scopolamine hydrobromide], the neuronal differentiation score in test [1] (library: Tocriscreen) is inactive: -3. Moreover, the “dopaminergic neuron differentiation score” value in test [2] (library: Tocriscreen) was inactive: 0.

On to `CN1[C@@H]2C[C@@H](OC(=O)[C@H](CO)c3ccccc3)C[C@H]1[C@@H]1O[C@@H]12`, for which the neuronal differentiation score in test [1] (library: Spectrum) is inactive: 0. In addition, the “dopaminergic neuron differentiation score” value in test [2] (library: Spectrum) was inactive: 0.

With `CC(=O)Oc1c2c(c(CC=C(C)C)c3c1C(=O)C1=C[C@@H]4CC5C(C)(C)OC(C/C=C(\C)C(=O)O)(C4=O)[C@@]15O3)OC(C)(CCC=C(C)C)C=C2` (stereo not given in full), in test [1] (library: Spectrum), the neuronal differentiation score is inactive: 0. For the same compound, the “dopaminergic neuron differentiation score” value in test [2] (library: Spectrum) is inactive: 0.

Turning to `CCS(=O)(=O)Nc1cccc(C(=C2CCCCC2)c2cnc[nH]2)c1`, in test [1] (library: LOPAC), the neuronal differentiation score was inactive: 0. In addition, the “dopaminergic neuron differentiation score” value in test [2] (library: LOPAC) is active: 2.

`N[C@@H](Cc1ccc(N(CCCl)CCCl)cc1)C(=O)O` [Melphalan]: the neuronal differentiation score in test [1] (library: LOPAC) was inactive: 0. Also, the “dopaminergic neuron differentiation score” value in test [2] (library: LOPAC) is inactive: 0.

Take `CN1[C@@H]2C[C@@H](OC(=O)[C@H](CO)c3ccccc3)C[C@H]1[C@@H]1O[C@@H]12` [(-)-Scopolamine hydrobromide]: the neuronal differentiation score in test [1] (library: LOPAC) is inactive: 0. The “dopaminergic neuron differentiation score” value in test [2] (library: LOPAC) is inactive: 0.

With `NC(=O)c1ccc(N)nc1`, the neuronal differentiation score in test [1] (library: Spectrum) is inactive: 0. Moreover, the “dopaminergic neuron differentiation score” value in test [2] (library: Spectrum) was inactive: 0.

As to `C=C1C[C@@H]2[C@H](CC[C@]3(C)C(=O)CC[C@@H]23)[C@@]2(C)C=CC(=O)C=C12` [Exemestane], the neuronal differentiation score in test [1] (library: Prestwick) was inactive: 0. Moreover, the “dopaminergic neuron differentiation score” value in test [2] (library: Prestwick) is inactive: 0.

With `C[C@@H]1O[C@@H](O[C@@H]2C=C3CC[C@@H]4[C@H](CC[C@]5(C)[C@@H](c6ccc(=O)oc6)CC[C@]45O)[C@@]3(C)CC2)[C@H](O)[C@H](O)[C@H]1O`, the neuronal differentiation score in test [1] (library: Spectrum) is inactive: 0. Besides, in test [2] (library: Spectrum), the “dopaminergic neuron differentiation score” value is inactive: 0.

Regarding `c1ccc2c(c1)[nH]c1cnccc12` [Norharman], in test [1] (library: Phytochemical), the neuronal differentiation score was inactive: 0. In addition, in test [2] (library: Phytochemical), the “dopaminergic neuron differentiation score” value is inactive: 0.

Consider `COc1ccc2c(c1O)-c1c(OC)c(OC)cc3c1[C@H](C2)N(C)CC3` [Isocorydine (+)], for which the neuronal differentiation score in test [1] (library: Phytochemical) was inactive: 0. Also, the “dopaminergic neuron differentiation score” value in test [2] (library: Phytochemical) was inactive: 0.

For `NC(=O)C[S+]([O-])C(c1ccccc1)c1ccccc1` (stereo not given), the neuronal differentiation score in test [1] (library: Spectrum) was inactive: 0. Further, the “dopaminergic neuron differentiation score” value in test [2] (library: Spectrum) is inactive: 0.

As for `N=C(N)NN`, the neuronal differentiation score in test [1] (library: Spectrum) was inactive: 0. Further, the “dopaminergic neuron differentiation score” value in test [2] (library: Spectrum) was inactive: 0.

Regarding `NC(=O)COc1c(F)cc(SCCNS(=O)(=O)c2ccccc2)cc1F`, the neuronal differentiation score in test [1] (library: LOPAC) was inactive: 0. In addition, the “dopaminergic neuron differentiation score” value in test [2] (library: LOPAC) was inactive: 0.

For `C=C(C)[C@H]1Cc2c(ccc3c(=O)c4c(oc23)COc2cc(OC)c(OC)cc2-4)O1`, the neuronal differentiation score in test [1] (library: Spectrum) is inactive: 0. Further, in test [2] (library: Spectrum), the “dopaminergic neuron differentiation score” value was inactive: 0.

In the case of `O=C([O-])Cc1ccccc1.[Na+]`, in test [1] (library: Spectrum), the neuronal differentiation score was inactive: 1. For the same compound, the “dopaminergic neuron differentiation score” value in test [2] (library: Spectrum) is inactive: 0.
